Measured values: patent publication US8569344B2, “N-piperidinyl acetamide derivatives as calcium channel blockers” (Zalicus Pharmaceuticals Ltd., priority 2008, dated 2013)
The match of structure and compound is tentative.

Protein sequences, listed by entry. Tags and fused reporters are not part of them.
UniProt O43497, whole entry: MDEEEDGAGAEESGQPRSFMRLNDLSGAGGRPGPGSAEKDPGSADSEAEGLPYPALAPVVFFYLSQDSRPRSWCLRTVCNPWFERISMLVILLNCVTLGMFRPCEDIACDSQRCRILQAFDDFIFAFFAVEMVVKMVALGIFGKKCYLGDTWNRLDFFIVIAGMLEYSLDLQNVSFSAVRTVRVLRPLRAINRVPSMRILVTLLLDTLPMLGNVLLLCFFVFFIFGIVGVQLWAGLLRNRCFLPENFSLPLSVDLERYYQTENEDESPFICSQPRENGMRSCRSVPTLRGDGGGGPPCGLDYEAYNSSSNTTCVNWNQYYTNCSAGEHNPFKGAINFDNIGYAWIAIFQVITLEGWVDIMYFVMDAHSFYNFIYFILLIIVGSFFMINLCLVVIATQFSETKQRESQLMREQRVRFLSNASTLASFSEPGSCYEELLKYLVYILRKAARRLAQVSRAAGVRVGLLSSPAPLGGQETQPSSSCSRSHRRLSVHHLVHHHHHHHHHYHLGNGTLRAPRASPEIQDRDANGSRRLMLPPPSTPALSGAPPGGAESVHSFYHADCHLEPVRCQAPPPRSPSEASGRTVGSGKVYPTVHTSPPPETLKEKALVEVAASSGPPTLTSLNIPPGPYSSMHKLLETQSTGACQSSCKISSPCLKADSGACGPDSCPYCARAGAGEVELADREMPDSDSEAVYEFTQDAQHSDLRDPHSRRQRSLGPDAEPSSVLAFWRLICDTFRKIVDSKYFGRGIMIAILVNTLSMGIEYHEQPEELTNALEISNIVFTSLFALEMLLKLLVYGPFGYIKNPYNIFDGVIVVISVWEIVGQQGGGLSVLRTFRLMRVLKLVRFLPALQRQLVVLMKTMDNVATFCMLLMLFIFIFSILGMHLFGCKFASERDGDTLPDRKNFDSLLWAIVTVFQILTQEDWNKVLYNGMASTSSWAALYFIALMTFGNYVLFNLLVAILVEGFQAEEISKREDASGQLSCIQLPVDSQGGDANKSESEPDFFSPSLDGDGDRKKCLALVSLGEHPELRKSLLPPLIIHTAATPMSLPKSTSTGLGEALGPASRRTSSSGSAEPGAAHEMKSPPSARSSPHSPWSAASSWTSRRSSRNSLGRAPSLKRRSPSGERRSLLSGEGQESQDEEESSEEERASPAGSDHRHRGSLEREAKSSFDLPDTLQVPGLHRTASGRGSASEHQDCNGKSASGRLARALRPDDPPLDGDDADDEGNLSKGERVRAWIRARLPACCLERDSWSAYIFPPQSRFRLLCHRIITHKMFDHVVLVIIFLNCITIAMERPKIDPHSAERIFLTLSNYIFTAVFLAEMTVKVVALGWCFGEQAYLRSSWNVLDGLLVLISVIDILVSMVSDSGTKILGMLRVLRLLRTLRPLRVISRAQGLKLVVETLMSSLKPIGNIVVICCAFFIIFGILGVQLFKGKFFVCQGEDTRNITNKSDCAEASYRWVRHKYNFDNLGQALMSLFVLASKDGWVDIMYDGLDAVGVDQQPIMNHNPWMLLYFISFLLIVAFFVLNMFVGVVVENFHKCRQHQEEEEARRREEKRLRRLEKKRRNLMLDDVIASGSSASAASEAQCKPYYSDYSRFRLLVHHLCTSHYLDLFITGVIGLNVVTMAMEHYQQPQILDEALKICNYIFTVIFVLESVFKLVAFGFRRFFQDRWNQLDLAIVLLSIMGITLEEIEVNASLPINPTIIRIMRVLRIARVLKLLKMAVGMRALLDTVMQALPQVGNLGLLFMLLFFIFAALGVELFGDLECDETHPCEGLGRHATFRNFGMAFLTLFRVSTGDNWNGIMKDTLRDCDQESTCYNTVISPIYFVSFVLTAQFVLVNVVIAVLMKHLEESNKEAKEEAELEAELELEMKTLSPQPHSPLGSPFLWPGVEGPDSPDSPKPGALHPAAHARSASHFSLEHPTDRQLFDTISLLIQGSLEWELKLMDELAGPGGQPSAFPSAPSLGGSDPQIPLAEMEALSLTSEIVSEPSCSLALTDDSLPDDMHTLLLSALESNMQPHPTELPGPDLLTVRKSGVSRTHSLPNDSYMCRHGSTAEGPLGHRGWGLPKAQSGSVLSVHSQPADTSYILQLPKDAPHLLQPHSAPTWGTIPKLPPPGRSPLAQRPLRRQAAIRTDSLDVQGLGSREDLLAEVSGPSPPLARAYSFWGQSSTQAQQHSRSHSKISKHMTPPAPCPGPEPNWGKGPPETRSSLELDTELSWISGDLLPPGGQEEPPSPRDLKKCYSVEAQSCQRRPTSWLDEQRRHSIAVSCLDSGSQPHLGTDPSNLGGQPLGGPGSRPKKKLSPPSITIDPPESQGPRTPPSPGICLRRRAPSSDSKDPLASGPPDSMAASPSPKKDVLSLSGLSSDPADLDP
UniProt O95180, whole entry: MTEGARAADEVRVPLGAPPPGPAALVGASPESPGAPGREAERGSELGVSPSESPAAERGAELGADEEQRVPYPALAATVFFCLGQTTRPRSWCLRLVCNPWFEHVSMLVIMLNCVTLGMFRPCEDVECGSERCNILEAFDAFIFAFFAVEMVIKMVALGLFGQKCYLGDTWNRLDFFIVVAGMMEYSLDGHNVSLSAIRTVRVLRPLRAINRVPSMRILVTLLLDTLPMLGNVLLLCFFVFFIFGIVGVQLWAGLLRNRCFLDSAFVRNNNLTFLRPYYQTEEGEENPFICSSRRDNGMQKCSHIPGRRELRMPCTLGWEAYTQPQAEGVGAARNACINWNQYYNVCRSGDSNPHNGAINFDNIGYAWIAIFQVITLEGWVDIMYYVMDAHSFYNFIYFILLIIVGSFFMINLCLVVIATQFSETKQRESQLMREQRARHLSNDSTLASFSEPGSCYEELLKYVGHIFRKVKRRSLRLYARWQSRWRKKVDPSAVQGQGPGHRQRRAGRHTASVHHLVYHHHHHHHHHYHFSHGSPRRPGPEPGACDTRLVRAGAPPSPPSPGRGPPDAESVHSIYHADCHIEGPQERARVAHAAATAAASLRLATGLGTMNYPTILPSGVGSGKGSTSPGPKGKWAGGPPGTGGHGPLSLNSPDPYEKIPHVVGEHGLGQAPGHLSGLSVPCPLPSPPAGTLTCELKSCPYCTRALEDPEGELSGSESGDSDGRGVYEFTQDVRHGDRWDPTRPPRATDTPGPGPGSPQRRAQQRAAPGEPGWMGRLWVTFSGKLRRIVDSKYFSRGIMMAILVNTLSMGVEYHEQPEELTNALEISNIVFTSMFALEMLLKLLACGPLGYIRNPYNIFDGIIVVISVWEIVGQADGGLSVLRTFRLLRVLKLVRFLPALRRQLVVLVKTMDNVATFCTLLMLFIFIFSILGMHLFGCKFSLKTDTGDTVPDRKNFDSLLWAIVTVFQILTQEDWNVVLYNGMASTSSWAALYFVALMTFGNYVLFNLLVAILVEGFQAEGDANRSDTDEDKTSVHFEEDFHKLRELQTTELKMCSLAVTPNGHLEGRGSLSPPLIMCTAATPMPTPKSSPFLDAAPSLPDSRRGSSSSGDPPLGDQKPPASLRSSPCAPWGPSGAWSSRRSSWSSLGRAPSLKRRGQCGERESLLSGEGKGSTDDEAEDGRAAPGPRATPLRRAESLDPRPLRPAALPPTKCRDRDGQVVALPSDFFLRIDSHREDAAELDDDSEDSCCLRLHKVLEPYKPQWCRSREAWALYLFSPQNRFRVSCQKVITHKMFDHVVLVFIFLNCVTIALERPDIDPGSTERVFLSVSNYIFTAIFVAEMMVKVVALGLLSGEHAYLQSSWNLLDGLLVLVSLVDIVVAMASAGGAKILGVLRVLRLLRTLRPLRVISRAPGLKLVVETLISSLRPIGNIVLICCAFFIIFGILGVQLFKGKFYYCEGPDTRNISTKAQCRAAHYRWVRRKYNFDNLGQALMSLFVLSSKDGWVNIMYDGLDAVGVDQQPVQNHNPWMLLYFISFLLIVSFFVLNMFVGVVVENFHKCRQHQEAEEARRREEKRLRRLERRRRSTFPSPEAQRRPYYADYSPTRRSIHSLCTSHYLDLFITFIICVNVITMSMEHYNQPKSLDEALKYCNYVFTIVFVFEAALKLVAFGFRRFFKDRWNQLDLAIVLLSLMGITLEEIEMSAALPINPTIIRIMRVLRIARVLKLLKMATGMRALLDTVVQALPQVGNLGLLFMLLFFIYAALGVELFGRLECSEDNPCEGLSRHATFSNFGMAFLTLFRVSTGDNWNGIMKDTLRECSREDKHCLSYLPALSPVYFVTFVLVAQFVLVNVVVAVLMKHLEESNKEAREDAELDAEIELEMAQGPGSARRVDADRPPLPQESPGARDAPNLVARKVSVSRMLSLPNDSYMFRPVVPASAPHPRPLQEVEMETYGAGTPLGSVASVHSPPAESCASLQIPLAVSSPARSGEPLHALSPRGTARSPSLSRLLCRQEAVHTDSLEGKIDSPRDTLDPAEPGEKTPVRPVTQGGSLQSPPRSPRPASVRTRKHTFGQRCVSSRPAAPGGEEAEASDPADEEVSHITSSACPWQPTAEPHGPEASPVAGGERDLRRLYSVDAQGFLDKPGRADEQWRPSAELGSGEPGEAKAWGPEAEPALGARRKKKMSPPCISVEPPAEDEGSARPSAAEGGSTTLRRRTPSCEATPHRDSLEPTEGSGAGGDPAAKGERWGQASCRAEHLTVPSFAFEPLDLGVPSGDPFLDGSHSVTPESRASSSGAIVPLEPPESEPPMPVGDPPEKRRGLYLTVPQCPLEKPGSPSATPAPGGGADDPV

Assays:
[1] = molecular target: human α1G T-type channels (Homo sapiens, UniProt O43497); assay: T-type calcium channel block, whole cell patch clamp in HEK cells (α1G); type: cell-based; conditions: read-out: T-type Calcium Channel Block α1G IC50, mainly non-inactivated protocol, values above 10 μM shown as 10 μM, below 0.30 μM shown as 0.30 μM
[2] = molecular target: human α1H T-type channels (Homo sapiens, UniProt O95180); assay: T-type calcium channel block, whole cell patch clamp in HEK cells (α1H); type: cell-based; conditions: read-out: T-type Calcium Channel Block α1H IC50, mainly non-inactivated protocol, values above 10 μM shown as 10 μM

SMILES	IC50 [1]	IC50 [2]
CC1CCCN(CC(=O)N2CCC(CNC(=O)c3cc(C(F)(F)F)cc(C(F)(F)F)c3)CC2)C1 (stereo not drawn)	2.48 µM	1.19 µM
Cc1cc(C)cc(C(=O)NCC2CCN(CCNS(=O)(=O)C(F)(F)F)CC2)c1		> 10 µM
